From the supplement of paper PMC11546906
Structures can show the parent of a compound that is named as a salt. The list shows a part of the results. Single values are uncertain here, since repeats match poorly.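 A screen tested FDA-approved drugs combined with one-eighth-MIC colistin against a clinical mcr-1-positive, multidrug-resistant E. coli isolate, measuring OD600 at 24 h. Controls were untreated bacteria (growth) and broth alone (blank). An OD600 under 0.2 marked a combination as active.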

What follows are molecules tested on Escherichia coli 42 (mcr-1-positive clinical isolate) (assay: OD600 after 24 h growth with compound plus colistin (absorbance units (OD600)); higher = more bacterial growth (less inhibition)). Conditions: first compound 25 µM; colistin concentration 0.5 ug/mL; incubation time 24 h; 37 °C.
For `Cc1nc2n(c(=O)c1CCN1CCC(c3noc4cc(F)ccc34)CC1)CCCC2` [Risperidone] + CCC(C)CCCC(=O)N[C@@H](CCN)C(=O)N[C@H](C(=O)N[C@@H](CCN)C(=O)N[C@H]1CCNC(=O)[C@H]([C@@H](C)O)NC(=O)[C@H](CCN)NC(=O)[C@H](CCN)NC(=O)[C@H](CC(C)C)NC(=O)[C@@H](CC(C)C)NC(=O)[C@H](CCN)NC1=O)[C@@H](C)O [colistin], the OD600 was inactive: 0.996.
`COCCOC(=O)C1=C(C)NC(C)=C(C(=O)OC(C)C)C1c1cccc([N+](=O)[O-])c1` (centres undefined) [Nimodipine] + CCC(C)CCCC(=O)N[C@@H](CCN)C(=O)N[C@H](C(=O)N[C@@H](CCN)C(=O)N[C@H]1CCNC(=O)[C@H]([C@@H](C)O)NC(=O)[C@H](CCN)NC(=O)[C@H](CCN)NC(=O)[C@H](CC(C)C)NC(=O)[C@@H](CC(C)C)NC(=O)[C@H](CCN)NC1=O)[C@@H](C)O [colistin] was tested, and the OD600 was inactive: 0.758.
With `CN(C)CCC(c1ccc(Cl)cc1)c1ccccn1` (centres undefined) [Chlorpheniramine maleate] + CCC(C)CCCC(=O)N[C@@H](CCN)C(=O)N[C@H](C(=O)N[C@@H](CCN)C(=O)N[C@H]1CCNC(=O)[C@H]([C@@H](C)O)NC(=O)[C@H](CCN)NC(=O)[C@H](CCN)NC(=O)[C@H](CC(C)C)NC(=O)[C@@H](CC(C)C)NC(=O)[C@H](CCN)NC1=O)[C@@H](C)O [colistin] the OD600 was inactive: 0.981.
`C[C@]12CC[C@@H]3c4ccc(O)cc4CC[C@H]3[C@@H]1CCC2=O` [Estrone] + CCC(C)CCCC(=O)N[C@@H](CCN)C(=O)N[C@H](C(=O)N[C@@H](CCN)C(=O)N[C@H]1CCNC(=O)[C@H]([C@@H](C)O)NC(=O)[C@H](CCN)NC(=O)[C@H](CCN)NC(=O)[C@H](CC(C)C)NC(=O)[C@@H](CC(C)C)NC(=O)[C@H](CCN)NC1=O)[C@@H](C)O [colistin] was tested, and the OD600 was inactive: 0.902.
